Data: the supplement of paper PMC4604168 (melanoma cell lines)
This is one part of the list. Many values rest on one well or one pass, so single values are uncertain.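 The apoptosis fraction was the count of cleaved-PARP antibody-stained nuclei relative to all DNA-stained nuclei, imaged in 1,536-well plates. Screening doses were set so most cells survived, and baseline and induced cleaved-PARP levels vary greatly across cell lines.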

How the values were obtained:
Assay in all cases: cleaved PARP positive nuclei fraction relative to DMSO control; melanoma cells; higher = more apoptosis
Conditions in all cases: library dose: low library concentration; 72 h
501Mel = test system: 501Mel
A101D = test system: A101D
A2058 = test system: A2058
A375 = test system: A375
C32 = test system: C32
CBRC008 = test system: CBRC008 (line from a melanoma biopsy)
CBRC013 = test system: CBRC013 (line from a melanoma biopsy)
CBRC014 = test system: CBRC014 (line from a melanoma biopsy)
CBRC016 = test system: CBRC016 (line from a melanoma biopsy)
CBRC017 = test system: CBRC017 (line from a melanoma biopsy)
COLO792 = test system: COLO792
COLO800 = test system: COLO800
COLO829 = test system: COLO829
G361 = test system: G361
IPC-298 = test system: IPC-298
IST-MEL1 = test system: IST-MEL1
LB2518-MEL = test system: LB2518-MEL
LOXIMVI = test system: LOXIMVI
MEL-HO = test system: MEL-HO

Compound | cleaved PARP positive nuclei fraction (501Mel) | cleaved PARP positive nuclei fraction (A101D) | cleaved PARP positive nuclei fraction (A2058) | cleaved PARP positive nuclei fraction (A375) | cleaved PARP positive nuclei fraction (C32) | cleaved PARP positive nuclei fraction (CBRC008) | cleaved PARP positive nuclei fraction (CBRC013) | cleaved PARP positive nuclei fraction (CBRC014) | cleaved PARP positive nuclei fraction (CBRC016) | cleaved PARP positive nuclei fraction (CBRC017) | cleaved PARP positive nuclei fraction (COLO792) | cleaved PARP positive nuclei fraction (COLO800) | cleaved PARP positive nuclei fraction (COLO829) | cleaved PARP positive nuclei fraction (G361) | cleaved PARP positive nuclei fraction (IPC-298) | cleaved PARP positive nuclei fraction (IST-MEL1) | cleaved PARP positive nuclei fraction (LB2518-MEL) | cleaved PARP positive nuclei fraction (LOXIMVI) | cleaved PARP positive nuclei fraction (MEL-HO)
COc1cc(Nc2ncc(F)c(Nc3ccc4c(n3)NC(=O)C(C)(C)O4)n2)cc(OC)c1OC [Tamatinib] + CC1(C)NC(=O)N(c2ccc([N+](=O)[O-])c(C(F)(F)F)c2)C1=O [nilutamide] (first compound 0.4 µM, partner dose 1 µM) | 153% | 55.3% | 59.3% | 193% | 55.3% | 168% | 147% | 107% | 37.1% | 89.6% | 202% | 171% | 115% | 176% | 165% | 34.7% | 103% | 68.8% | 148%
Nc1cccc2c1CN(C1CCC(=O)NC1=O)C2=O (configuration not stated) [lenalidomide] + Cc1ccc(NC(=O)c2cccc(N(C)C)c2)cc1NC(=O)c1ccc(O)cc1 [ZM336372] (first compound 1 µM, partner dose 2 µM) | 101% | 81.7% | 89% | 81.6% | 93.6% | 93% | 101% | 80% | 64.3% | 87.7% | 90% | 77.9% | 104% | 126% | 139% | 107% | 54.2% | 49.1% | 65.8%
CC(C)(C)c1cnc(CSc2cnc(NC(=O)C3CCNCC3)s2)o1 + COc1cc2c(Oc3ccc4[nH]c(C)cc4c3F)ncnc2cc1OCCCN1CCCC1 [cediranib] (first compound 0.01 µM, partner dose 0.4 µM) | 82.5% | 82.3% | 66.5% | 88% | 89.9% | 57.3% | 138% | 93.2% | 96.1% | 83.9% | 84.1% | 60.2% | 113% | 74.7% | 82.7% | 94.7% | 69.2% | 551% | 70.9%
Cc1ccc(NC(=O)c2cccc(N(C)C)c2)cc1NC(=O)c1ccc(O)cc1 + O=C(O)c1ccc(-c2c[nH]c3ncc(-c4ccccc4)cc23)cc1C1CCCC1 [GSK650394] (first compound 2 µM, partner dose 0.16 µM) | 105% | 265% | 40.4% | 82.1% | 73.9% | 135% | 60.4% | 122% | 309% | 127% | 157% | 95.3% | 56.1% | 74.2% | 118% | 210% | 103% | 45.1% | 135%
Clc1ccc(Nc2nnc(Cc3ccncc3)c3ccccc23)cc1 [vatalanib] + C[C@@H]1CCN(C(=O)CC#N)C[C@@H]1N(C)c1ncnc2[nH]ccc12 [CP690550] (first compound 2 µM, partner dose 1 µM) | 184% | 97.7% | 92% | 234% | 79.9% | 130% | 132% | 99.7% | 164% | 92.9% | 132% | 75.5% | 179% | 115% | 24.6% | 152% | 127% | 319% | 122%
O=C(CCCCCCC(=O)Nc1ccccc1)NO [vorinostat] + NC(=O)Nc1cc(-c2cccc(F)c2)sc1C(=O)N[C@H]1CCCNC1 [AZD7762] (first compound 0.08 µM, partner dose 0.02 µM) | 164% | 170% | 34.2% | 130% | 69.1% | 109% | 96.9% | 91.4% | 143% | 108% | 113% | 97.5% | 123% | 76.7% | 91.5% | 93.6% | 51.9% | 43.5% | 131%
OCCn1cc(-c2cnc3nnn(Cc4ccc5ncccc5c4)c3n2)cn1 + Cn1cncc1[C@@](N)(c1ccc(Cl)cc1)c1ccc2c(c1)c(-c1cccc(Cl)c1)cc(=O)n2C [tipifarnib] (first compound 1 µM, partner dose 0.01 µM) | 87.5% | 85.9% | 113% | 188% | 116% | 261% | 169% | 98% | 35.7% | 125% | 105% | 68.6% | 83.7% | 155% | 48.1% | 104% | 74.6% | 90.8% | 69.5%
CC(C)(C)c1cnc(CSc2cnc(NC(=O)C3CCNCC3)s2)o1 + OCCn1cc(-c2cnc3nnn(Cc4ccc5ncccc5c4)c3n2)cn1 [PF04217903] (first compound 0.01 µM, partner dose 1 µM) | 89% | 73.2% | 65.2% | 87.5% | 219% | 155% | 168% | 79% | 17.4% | 83.1% | 108% | 194% | 37.7% | 17.7% | 44% | 71.2% | 88.8% | 114% | 68.8%

Limited to cleaved PARP positive nuclei fraction (A2058), cleaved PARP positive nuclei fraction (IST-MEL1) and cleaved PARP positive nuclei fraction (IPC-298), for some of the entries so far:
Compound	cleaved PARP positive nuclei fraction (A2058)	cleaved PARP positive nuclei fraction (IST-MEL1)	cleaved PARP positive nuclei fraction (IPC-298)
CC(C)(C)c1cnc(CSc2cnc(NC(=O)C3CCNCC3)s2)o1 + COc1cc2c(Oc3ccc4[nH]c(C)cc4c3F)ncnc2cc1OCCCN1CCCC1 [cediranib] (first compound 0.01 µM, partner dose 0.4 µM)	66.5%	94.7%	82.7%
Cc1ccc(NC(=O)c2cccc(N(C)C)c2)cc1NC(=O)c1ccc(O)cc1 + O=C(O)c1ccc(-c2c[nH]c3ncc(-c4ccccc4)cc23)cc1C1CCCC1 [GSK650394] (first compound 2 µM, partner dose 0.16 µM)	40.4%	210%	118%
